{"source": "PubChem BioAssay AID1259405 | NCATS, 2018", "test": "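Mouse-designed siRNAs used to find CHO productivity engineering targets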 (primary screen)", "cell system": "Chinese hamster CHO-K1 ovary cells with stable secreted eGFP expression", "reagent": "single siRNA against mouse genes, 0.8 pmol siRNA per well (2 µl of 400 nM stock)", "duration": "3 days", "read-out": "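Percent of the per-plate non-targeting control median for intracellular GFP per well by laser scanning cytometry and for cell viability by ATP luminescence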", "reading the numbers": "GFP, % of control: higher = more GFP per well, higher productivity; viability (ATP), % of control: higher = more viable cells (more ATP)", "hit rule": "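Called active when intracellular GFP, relative to negative control, is at or above 120%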", "note": "In all, the deposit lists about 50,000 reagents; this is an unselected part. About 4,000 of them (8%) count as active. 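Mouse siRNA library applied to hamster cells; one well for each siRNA.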 A number with no mark means an inactive call. The numbers tell different reagents against one gene apart."}
{"gene knocked down":"Zfp948 (GeneID 381066)","reagent":1,"GFP, % of control":60.1,"viability (ATP), % of control":53.1}
{"gene knocked down":"Zfp948 (GeneID 381066)","reagent":2,"GFP, % of control":42.4,"viability (ATP), % of control":64.6}
{"gene knocked down":"Zfp948 (GeneID 381066)","reagent":3,"GFP, % of control":72.4,"viability (ATP), % of control":71.9}
{"gene knocked down":"Aadacl4fm1 (GeneID 381572)","reagent":1,"GFP, % of control":67.3,"viability (ATP), % of control":27}
{"gene knocked down":"Aadacl4fm1 (GeneID 381572)","reagent":2,"GFP, % of control":72.2,"viability (ATP), % of control":94.7}
{"gene knocked down":"Aadacl4fm1 (GeneID 381572)","reagent":3,"GFP, % of control":49,"viability (ATP), % of control":48.2}
{"gene knocked down":"Mkks (GeneID 59030)","reagent":1,"GFP, % of control":65.1,"viability (ATP), % of control":50.5}
{"gene knocked down":"Mkks (GeneID 59030)","reagent":2,"GFP, % of control":110,"viability (ATP), % of control":78.9}
{"gene knocked down":"Mkks (GeneID 59030)","reagent":3,"GFP, % of control":"137 (active)","viability (ATP), % of control":119}
{"gene knocked down":"Gle1 (GeneID 74412)","reagent":1,"GFP, % of control":43.5,"viability (ATP), % of control":66.3}
{"gene knocked down":"Gle1 (GeneID 74412)","reagent":2,"GFP, % of control":45.5,"viability (ATP), % of control":43}
{"gene knocked down":"Gle1 (GeneID 74412)","reagent":3,"GFP, % of control":68.2,"viability (ATP), % of control":94.2}
{"gene knocked down":"Zfp36 (GeneID 22695)","reagent":1,"GFP, % of control":"153 (active)","viability (ATP), % of control":68.2}
{"gene knocked down":"Zfp36 (GeneID 22695)","reagent":2,"GFP, % of control":105,"viability (ATP), % of control":71}
{"gene knocked down":"Zfp36 (GeneID 22695)","reagent":3,"GFP, % of control":108,"viability (ATP), % of control":116}
{"gene knocked down":"Zfp36 (GeneID 22695)","reagent":4,"GFP, % of control":"132 (active)","viability (ATP), % of control":117}
{"gene knocked down":"Zfp36 (GeneID 22695)","reagent":5,"GFP, % of control":87.7,"viability (ATP), % of control":102}

The list goes on; the last 3 above are carried over.
{"gene knocked down":"Zfp36 (GeneID 22695)","reagent":3,"GFP, % of control":108,"viability (ATP), % of control":116}
{"gene knocked down":"Zfp36 (GeneID 22695)","reagent":4,"GFP, % of control":"132 (active)","viability (ATP), % of control":117}
{"gene knocked down":"Zfp36 (GeneID 22695)","reagent":5,"GFP, % of control":87.7,"viability (ATP), % of control":102}
{"gene knocked down":"B9d2 (GeneID 232987)","reagent":1,"GFP, % of control":75.5,"viability (ATP), % of control":61.5}
{"gene knocked down":"B9d2 (GeneID 232987)","reagent":2,"GFP, % of control":102,"viability (ATP), % of control":100}
{"gene knocked down":"B9d2 (GeneID 232987)","reagent":3,"GFP, % of control":105,"viability (ATP), % of control":115}
{"gene knocked down":"Ablim1 (GeneID 226251)","reagent":1,"GFP, % of control":51.4,"viability (ATP), % of control":60.4}
{"gene knocked down":"Ablim1 (GeneID 226251)","reagent":2,"GFP, % of control":64.9,"viability (ATP), % of control":79}
{"gene knocked down":"Ablim1 (GeneID 226251)","reagent":3,"GFP, % of control":68.4,"viability (ATP), % of control":94.8}
{"gene knocked down":"Epx (GeneID 13861)","reagent":1,"GFP, % of control":106,"viability (ATP), % of control":81.6}
{"gene knocked down":"Epx (GeneID 13861)","reagent":2,"GFP, % of control":75.2,"viability (ATP), % of control":57.4}
{"gene knocked down":"Epx (GeneID 13861)","reagent":3,"GFP, % of control":55.1,"viability (ATP), % of control":69.2}
{"gene knocked down":"Bhlha9 (GeneID 320522)","reagent":1,"GFP, % of control":91.6,"viability (ATP), % of control":81.6}
{"gene knocked down":"Bhlha9 (GeneID 320522)","reagent":2,"GFP, % of control":44.2,"viability (ATP), % of control":66.4}
{"gene knocked down":"Bhlha9 (GeneID 320522)","reagent":3,"GFP, % of control":97.6,"viability (ATP), % of control":123}
{"gene knocked down":"Clgn (GeneID 12745)","reagent":1,"GFP, % of control":106,"viability (ATP), % of control":122}
{"gene knocked down":"Clgn (GeneID 12745)","reagent":2,"GFP, % of control":90.5,"viability (ATP), % of control":89.8}
{"gene knocked down":"Clgn (GeneID 12745)","reagent":3,"GFP, % of control":75.6,"viability (ATP), % of control":111}
{"gene knocked down":"Nphs1 (GeneID 54631)","reagent":1,"GFP, % of control":83.1,"viability (ATP), % of control":92.1}
{"gene knocked down":"Nphs1 (GeneID 54631)","reagent":2,"GFP, % of control":41,"viability (ATP), % of control":48.1}
{"gene knocked down":"Fhip1b (GeneID 74349)","reagent":1,"GFP, % of control":62,"viability (ATP), % of control":78.2}
{"gene knocked down":"Fhip1b (GeneID 74349)","reagent":2,"GFP, % of control":52.3,"viability (ATP), % of control":75.4}
{"gene knocked down":"Fhip1b (GeneID 74349)","reagent":3,"GFP, % of control":76.4,"viability (ATP), % of control":108}
{"gene knocked down":"Barx1 (GeneID 12022)","reagent":1,"GFP, % of control":119,"viability (ATP), % of control":108}
{"gene knocked down":"Barx1 (GeneID 12022)","reagent":2,"GFP, % of control":29.8,"viability (ATP), % of control":65.4}
{"gene knocked down":"Barx1 (GeneID 12022)","reagent":3,"GFP, % of control":56.5,"viability (ATP), % of control":79.5}
